{
  "sequences": {"note": "Chains of the proteins cited; added tags and fusions are not shown. Lines headed by an entry give the natural chain unless they say otherwise; changes in a name come on top.", "UniProt Q96NB3": "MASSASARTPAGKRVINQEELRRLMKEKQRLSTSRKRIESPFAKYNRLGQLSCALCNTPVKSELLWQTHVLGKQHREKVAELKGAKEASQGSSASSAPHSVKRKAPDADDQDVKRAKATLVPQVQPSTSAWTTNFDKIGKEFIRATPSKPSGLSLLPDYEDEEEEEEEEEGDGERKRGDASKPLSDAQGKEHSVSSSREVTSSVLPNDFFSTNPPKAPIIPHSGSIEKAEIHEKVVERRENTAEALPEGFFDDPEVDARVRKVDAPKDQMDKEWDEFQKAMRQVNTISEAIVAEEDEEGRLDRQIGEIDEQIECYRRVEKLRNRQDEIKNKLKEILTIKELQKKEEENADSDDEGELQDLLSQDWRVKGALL", "UniProt Q96D96": "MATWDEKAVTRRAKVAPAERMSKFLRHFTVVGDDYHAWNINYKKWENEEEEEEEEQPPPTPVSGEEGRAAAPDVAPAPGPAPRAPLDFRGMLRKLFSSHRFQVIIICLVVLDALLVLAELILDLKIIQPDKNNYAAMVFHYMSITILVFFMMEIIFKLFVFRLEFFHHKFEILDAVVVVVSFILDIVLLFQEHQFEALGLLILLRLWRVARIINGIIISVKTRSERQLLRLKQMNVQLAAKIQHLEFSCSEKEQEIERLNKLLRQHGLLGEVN", "UniProt Q96EY1": "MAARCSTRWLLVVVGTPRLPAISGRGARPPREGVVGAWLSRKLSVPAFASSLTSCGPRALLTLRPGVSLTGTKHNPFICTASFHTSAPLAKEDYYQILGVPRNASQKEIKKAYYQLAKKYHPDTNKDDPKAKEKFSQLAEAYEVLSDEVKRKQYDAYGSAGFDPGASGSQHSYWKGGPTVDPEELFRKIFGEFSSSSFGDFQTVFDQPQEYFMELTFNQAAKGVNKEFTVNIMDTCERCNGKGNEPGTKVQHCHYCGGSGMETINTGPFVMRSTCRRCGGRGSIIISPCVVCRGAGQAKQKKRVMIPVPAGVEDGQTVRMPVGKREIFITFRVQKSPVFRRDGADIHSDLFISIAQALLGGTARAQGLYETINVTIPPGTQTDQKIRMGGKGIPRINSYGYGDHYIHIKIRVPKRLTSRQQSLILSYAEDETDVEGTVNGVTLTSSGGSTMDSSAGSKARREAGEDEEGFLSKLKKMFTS", "UniProt Q96S66": "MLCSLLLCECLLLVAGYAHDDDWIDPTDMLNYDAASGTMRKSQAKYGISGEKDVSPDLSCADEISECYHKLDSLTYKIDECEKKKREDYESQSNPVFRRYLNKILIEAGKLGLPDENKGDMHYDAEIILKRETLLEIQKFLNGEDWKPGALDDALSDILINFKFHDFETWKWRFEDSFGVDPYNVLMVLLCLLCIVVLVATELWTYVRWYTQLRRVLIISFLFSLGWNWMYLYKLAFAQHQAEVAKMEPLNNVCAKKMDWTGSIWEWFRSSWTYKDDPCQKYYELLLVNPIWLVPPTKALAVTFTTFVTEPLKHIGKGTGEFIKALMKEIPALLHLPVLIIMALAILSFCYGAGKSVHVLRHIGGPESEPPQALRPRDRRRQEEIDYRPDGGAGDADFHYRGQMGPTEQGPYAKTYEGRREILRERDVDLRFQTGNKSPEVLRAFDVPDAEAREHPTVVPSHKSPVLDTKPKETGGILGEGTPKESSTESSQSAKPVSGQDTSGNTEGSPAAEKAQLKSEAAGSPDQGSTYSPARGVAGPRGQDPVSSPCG", "UniProt Q96P48": "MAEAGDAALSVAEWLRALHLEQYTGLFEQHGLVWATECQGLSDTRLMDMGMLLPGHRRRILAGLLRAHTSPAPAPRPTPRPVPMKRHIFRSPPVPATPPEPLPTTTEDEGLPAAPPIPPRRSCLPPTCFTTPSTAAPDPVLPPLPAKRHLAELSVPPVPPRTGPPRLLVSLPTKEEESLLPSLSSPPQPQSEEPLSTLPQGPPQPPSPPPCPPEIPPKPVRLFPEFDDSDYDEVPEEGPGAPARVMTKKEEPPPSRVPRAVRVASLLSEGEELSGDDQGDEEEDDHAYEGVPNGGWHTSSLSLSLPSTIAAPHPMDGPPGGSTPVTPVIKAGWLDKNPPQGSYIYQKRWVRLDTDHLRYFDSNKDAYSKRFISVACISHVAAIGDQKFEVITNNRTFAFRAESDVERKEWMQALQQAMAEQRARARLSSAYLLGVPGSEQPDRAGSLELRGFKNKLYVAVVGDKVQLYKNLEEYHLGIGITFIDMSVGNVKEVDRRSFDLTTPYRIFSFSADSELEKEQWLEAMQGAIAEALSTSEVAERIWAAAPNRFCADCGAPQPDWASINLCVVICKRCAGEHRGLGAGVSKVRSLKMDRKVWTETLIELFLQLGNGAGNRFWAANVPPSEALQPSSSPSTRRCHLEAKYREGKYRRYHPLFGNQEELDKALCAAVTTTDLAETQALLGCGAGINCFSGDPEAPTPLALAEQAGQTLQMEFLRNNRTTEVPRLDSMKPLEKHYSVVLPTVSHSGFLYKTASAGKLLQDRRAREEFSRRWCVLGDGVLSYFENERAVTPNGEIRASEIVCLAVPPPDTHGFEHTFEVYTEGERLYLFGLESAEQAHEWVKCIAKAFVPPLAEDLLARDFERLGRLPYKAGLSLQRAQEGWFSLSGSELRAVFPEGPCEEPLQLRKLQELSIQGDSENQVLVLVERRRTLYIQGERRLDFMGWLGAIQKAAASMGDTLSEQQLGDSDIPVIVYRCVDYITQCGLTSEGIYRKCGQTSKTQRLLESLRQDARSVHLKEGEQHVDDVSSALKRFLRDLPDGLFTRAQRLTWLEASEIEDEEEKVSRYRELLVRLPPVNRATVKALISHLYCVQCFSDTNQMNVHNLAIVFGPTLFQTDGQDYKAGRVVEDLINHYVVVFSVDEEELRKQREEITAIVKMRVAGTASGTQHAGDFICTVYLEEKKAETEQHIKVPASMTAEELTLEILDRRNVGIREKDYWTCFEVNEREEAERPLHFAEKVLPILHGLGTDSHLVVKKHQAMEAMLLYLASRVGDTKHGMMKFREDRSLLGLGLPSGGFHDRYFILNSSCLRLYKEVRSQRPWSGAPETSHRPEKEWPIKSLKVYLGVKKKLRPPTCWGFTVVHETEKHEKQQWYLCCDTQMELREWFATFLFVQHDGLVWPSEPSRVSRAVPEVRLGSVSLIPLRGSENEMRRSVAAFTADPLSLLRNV", "UniProt Q96JP5": "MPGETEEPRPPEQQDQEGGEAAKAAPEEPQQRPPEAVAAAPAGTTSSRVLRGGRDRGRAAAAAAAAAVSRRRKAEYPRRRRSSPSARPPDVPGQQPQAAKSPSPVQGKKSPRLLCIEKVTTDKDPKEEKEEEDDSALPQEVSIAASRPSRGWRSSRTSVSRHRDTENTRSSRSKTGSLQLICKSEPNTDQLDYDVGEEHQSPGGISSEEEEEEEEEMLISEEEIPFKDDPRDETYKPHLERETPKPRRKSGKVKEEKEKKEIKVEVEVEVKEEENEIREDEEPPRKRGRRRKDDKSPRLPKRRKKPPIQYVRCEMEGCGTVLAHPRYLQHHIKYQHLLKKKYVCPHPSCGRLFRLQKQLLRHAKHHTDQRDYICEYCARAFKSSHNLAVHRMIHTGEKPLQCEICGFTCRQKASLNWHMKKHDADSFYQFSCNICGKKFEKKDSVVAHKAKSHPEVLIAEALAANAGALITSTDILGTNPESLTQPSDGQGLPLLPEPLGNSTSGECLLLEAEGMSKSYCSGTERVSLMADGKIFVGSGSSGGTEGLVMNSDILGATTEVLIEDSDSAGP", "UniProt Q96RY5": "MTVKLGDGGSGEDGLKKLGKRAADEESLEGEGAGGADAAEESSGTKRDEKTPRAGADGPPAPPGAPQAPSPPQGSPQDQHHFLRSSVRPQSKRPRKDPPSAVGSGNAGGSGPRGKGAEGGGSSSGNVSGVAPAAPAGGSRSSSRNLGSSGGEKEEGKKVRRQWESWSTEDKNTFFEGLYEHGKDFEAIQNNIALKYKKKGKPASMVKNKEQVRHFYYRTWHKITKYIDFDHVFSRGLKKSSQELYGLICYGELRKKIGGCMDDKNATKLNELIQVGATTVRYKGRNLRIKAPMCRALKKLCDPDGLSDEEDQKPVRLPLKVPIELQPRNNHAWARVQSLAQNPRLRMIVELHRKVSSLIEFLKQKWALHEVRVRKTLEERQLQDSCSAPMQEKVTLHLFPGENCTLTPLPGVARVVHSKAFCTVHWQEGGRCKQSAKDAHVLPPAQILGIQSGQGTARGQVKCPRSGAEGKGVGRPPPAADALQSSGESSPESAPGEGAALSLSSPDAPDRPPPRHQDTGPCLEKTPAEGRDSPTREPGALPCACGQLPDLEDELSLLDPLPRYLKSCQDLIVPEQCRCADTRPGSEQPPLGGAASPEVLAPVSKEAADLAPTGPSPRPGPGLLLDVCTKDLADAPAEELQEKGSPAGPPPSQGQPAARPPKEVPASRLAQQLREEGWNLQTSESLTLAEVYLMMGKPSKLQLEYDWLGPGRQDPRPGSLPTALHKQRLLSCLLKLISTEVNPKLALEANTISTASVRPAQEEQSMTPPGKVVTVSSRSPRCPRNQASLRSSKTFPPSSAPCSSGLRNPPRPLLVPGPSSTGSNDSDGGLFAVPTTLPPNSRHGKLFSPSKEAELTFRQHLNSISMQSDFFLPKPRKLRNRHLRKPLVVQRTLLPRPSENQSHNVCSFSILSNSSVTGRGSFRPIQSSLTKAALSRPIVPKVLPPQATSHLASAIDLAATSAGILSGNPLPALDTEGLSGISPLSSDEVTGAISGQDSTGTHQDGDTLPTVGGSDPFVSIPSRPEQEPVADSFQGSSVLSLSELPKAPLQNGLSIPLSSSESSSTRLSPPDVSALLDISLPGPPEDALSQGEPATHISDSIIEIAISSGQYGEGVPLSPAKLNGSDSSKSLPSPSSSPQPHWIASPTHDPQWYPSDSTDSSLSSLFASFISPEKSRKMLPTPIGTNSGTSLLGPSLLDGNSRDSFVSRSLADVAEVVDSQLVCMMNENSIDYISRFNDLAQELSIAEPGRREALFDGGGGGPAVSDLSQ", "UniProt Q96FJ0": "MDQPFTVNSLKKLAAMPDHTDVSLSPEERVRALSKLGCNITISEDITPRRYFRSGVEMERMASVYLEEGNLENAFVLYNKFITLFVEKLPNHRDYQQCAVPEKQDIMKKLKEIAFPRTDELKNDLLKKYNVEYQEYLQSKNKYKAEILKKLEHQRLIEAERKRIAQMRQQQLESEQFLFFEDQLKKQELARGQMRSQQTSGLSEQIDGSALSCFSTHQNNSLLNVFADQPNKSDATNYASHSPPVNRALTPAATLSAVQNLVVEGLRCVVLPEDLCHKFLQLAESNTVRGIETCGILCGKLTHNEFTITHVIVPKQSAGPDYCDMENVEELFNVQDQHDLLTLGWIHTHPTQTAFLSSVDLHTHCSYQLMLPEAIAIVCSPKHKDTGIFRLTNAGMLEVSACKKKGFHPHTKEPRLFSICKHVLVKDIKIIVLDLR", "UniProt Q96RR4, whole entry, looked up": "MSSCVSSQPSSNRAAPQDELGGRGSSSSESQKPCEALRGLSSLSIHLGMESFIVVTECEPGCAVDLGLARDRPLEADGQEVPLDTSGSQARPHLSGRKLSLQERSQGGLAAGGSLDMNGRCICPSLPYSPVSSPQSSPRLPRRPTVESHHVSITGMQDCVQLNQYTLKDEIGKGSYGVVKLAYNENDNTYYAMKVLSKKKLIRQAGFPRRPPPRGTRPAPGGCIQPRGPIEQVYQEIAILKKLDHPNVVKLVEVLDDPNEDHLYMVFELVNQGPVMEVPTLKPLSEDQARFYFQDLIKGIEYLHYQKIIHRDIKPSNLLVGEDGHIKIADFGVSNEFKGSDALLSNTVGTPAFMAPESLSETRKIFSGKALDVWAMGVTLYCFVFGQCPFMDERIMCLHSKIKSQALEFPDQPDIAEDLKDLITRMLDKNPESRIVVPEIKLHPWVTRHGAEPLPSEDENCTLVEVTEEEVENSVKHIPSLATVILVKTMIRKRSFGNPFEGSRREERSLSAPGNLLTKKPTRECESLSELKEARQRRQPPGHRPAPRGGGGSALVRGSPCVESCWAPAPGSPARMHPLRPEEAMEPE", "UniProt Q96F25": "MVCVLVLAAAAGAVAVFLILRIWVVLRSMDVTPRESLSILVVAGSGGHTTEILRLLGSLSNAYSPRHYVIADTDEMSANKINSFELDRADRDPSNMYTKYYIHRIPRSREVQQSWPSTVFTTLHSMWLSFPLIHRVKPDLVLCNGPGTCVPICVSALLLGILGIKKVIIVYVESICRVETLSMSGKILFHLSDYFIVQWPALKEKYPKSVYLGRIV", "UniProt Q96S97": "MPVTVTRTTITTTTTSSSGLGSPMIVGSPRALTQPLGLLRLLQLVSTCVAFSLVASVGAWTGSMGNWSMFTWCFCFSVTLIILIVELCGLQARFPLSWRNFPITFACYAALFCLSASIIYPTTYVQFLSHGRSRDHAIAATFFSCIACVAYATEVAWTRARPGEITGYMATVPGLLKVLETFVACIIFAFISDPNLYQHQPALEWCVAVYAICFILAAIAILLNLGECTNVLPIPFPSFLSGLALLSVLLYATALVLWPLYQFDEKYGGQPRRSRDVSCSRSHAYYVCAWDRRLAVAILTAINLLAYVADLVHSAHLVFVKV"},
  "source": "the supplement of paper PMC6411743",
  "note": "± gives the standard deviation of the averaged measurements. The list shows a part of the results, in another mix than the full data. Small differences around the control level are noise.",
  "data": [
    {"compound": "Nc1ncnc2c1ncn2[C@@H]1O[C@H](COP(=O)(O)OP(=O)(O)OP(=O)(O)O)[C@@H](O)[C@H]1O [adenosine triphosphate]", "assay": "NP40-soluble protein abundance relative to vehicle (solubility fold change) (ratio); higher = more soluble protein in presence of ATP", "conditions": "concentration: 0.1mM", "method_in_brief": "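Values are fold changes against the detergent-processed vehicle, based on vsn-normalised intensities. Jurkat crude lysate was treated at eight concentrations from 0.1 to 10 mM (10 min at room temperature, then 3 min at 37 °C), solubilised with 0.8% NP40 and benzonase, ultracentrifuged and analysed by TMT-labelled LC-MS/MS over three independent experiments.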", "values": [
      {"target": "ZNF830 (UniProt Q96NB3)", "NP40-soluble protein abundance": "1.1 ± 0.081"},
      {"target": "UniProt Q96DZ1 and related entries", "NP40-soluble protein abundance": "1.08 ± 0.12"},
      {"target": "UniProt Q96D96 and related entries", "NP40-soluble protein abundance": "1.04 ± 0.085"},
      {"target": "UniProt Q96EY1 and related entries", "NP40-soluble protein abundance": "0.967 ± 0.057"},
      {"target": "EFHD2 (UniProt Q96C19)", "NP40-soluble protein abundance": "0.938 ± 0.051"},
      {"target": "UniProt Q96BN8", "NP40-soluble protein abundance": "1 ± 0.025"},
      {"target": "UIMC1 (UniProt Q96RL1)", "NP40-soluble protein abundance": "0.9873 ± 0.0098"},
      {"target": "UniProt Q96MT7-2", "NP40-soluble protein abundance": "1.03 ± 0.059"},
      {"target": "UniProt Q96S66 and related entries", "NP40-soluble protein abundance": "1.01 ± 0.058"},
      {"target": "UniProt Q96P48 and related entries", "NP40-soluble protein abundance": "1.07 ± 0.053"},
      {"target": "UniProt Q96EK5", "NP40-soluble protein abundance": "1 ± 0.043"},
      {"target": "UniProt Q96BU1 and related entries", "NP40-soluble protein abundance": "0.983 ± 0.16"},
      {"target": "UniProt Q96J02 and related entries", "NP40-soluble protein abundance": "1.09 ± 0.023"},
      {"target": "DCUN1D1 (UniProt Q96GG9)", "NP40-soluble protein abundance": "0.971 ± 0.032"},
      {"target": "ZFP91 (UniProt Q96JP5)", "NP40-soluble protein abundance": "1.06 ± 0.095"},
      {"target": "UniProt Q96EI5 and related entries", "NP40-soluble protein abundance": "0.937 ± 0.04"},
      {"target": "UniProt Q96EV8 and related entries", "NP40-soluble protein abundance": "1.03 ± 0.038"},
      {"target": "CRAMP1 (UniProt Q96RY5)", "NP40-soluble protein abundance": "0.94 ± 0.033"},
      {"target": "UniProt Q96N46 and related entries", "NP40-soluble protein abundance": "1.04 ± 0.024"},
      {"target": "PDXP (UniProt Q96GD0)", "NP40-soluble protein abundance": "0.973 ± 0.026"},
      {"target": "UniProt Q96QU8 and related entries", "NP40-soluble protein abundance": "1.029 ± 0.0063"},
      {"target": "UniProt Q96FJ0 and related entries", "NP40-soluble protein abundance": "1.11 ± 0.066"},
      {"target": "UniProt Q96HR8 and related entries", "NP40-soluble protein abundance": "1.03 ± 0.041"},
      {"target": "UniProt Q96RR4 and related entries", "NP40-soluble protein abundance": "1.07 ± 0.036"},
      {"target": "UniProt Q96RP9 and related entries", "NP40-soluble protein abundance": "1.04 ± 0.053"},
      {"target": "UniProt Q96P50 and related entries", "NP40-soluble protein abundance": "1.07 ± 0.018"},
      {"target": "SCLT1 (UniProt Q96NL6)", "NP40-soluble protein abundance": "1.05 ± 0.069"},
      {"target": "PCMTD1 (UniProt Q96MG8)", "NP40-soluble protein abundance": "0.963 ± 0.043"},
      {"target": "UniProt Q96ES7", "NP40-soluble protein abundance": "0.949 ± 0.073"},
      {"target": "ALG14 (UniProt Q96F25)", "NP40-soluble protein abundance": "1.188 ± 0.0048"},
      {"target": "DNAJC1 (UniProt Q96KC8)", "NP40-soluble protein abundance": "1.01 ± 0.07"},
      {"target": "UniProt Q96S97 and related entries", "NP40-soluble protein abundance": "1.08 ± 0.022"},
      {"target": "VPS35 (UniProt Q96QK1)", "NP40-soluble protein abundance": "1.02 ± 0.069"},
      {"target": "RAB39B (UniProt Q96DA2)", "NP40-soluble protein abundance": "1.1 ± 0.13"},
      {"target": "UniProt Q96BW9-2|Q96BW9-3|Q96BW9", "NP40-soluble protein abundance": "1.026 ± 0.0049"},
      {"target": "UniProt Q96RG2 and related entries", "NP40-soluble protein abundance": "1.003 ± 0.0072"},
      {"target": "UniProt Q96GC9", "NP40-soluble protein abundance": "0.994 ± 0.028"}
    ]}
  ]
}
